PubChem BioAssay AID1259405 | NCATS | 2018

Assay: 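Silenced genes that increase secreted GFP made by CHO cells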 (primary screen)
Cell system: Chinese hamster CHO-K1 ovary cells with stable secreted eGFP expression
Reagents: single siRNA against mouse genes, 0.8 pmol siRNA per well (2 µl of 400 nM stock)
Duration: 3 days
Read-out: 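Percent of the per-plate non-targeting control median for intracellular GFP per well by laser scanning cytometry and for cell viability by ATP luminescence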
Direction: GFP, % of control: higher = more GFP per well, higher productivity; viability (ATP), % of control: higher = more viable cells (more ATP)
Active means: 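Called active when intracellular GFP, relative to negative control, is at or above 120%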
The deposit covers about 50,000 reagents; this is an unselected part. Of all reagents, about 4,000 (8%) were called active. 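Mouse siRNA library applied to hamster cells; one well for each siRNA.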 Unmarked entries are inactive. Reagents against one gene are numbered here.

gene	reagent	GFP, % of control	viability (ATP), % of control
Tbc1d17	1	136 (active)	112
Tbc1d17	2	119	116
Tbc1d17	3	117	89.4
Gjb4	1	51.4	73
Gjb4	2	131 (active)	106
Gjb4	3	90.7	138
Bcl7a	1	65.1	60.8
Bcl7a	2	90.1	94.3
Bcl7a	3	99	124
Snca	1	170 (active)	129
Snca	2	90.3	80.5
Nop2	1	95.4	77.2
Nop2	2	96.6	88
Nop2	3	45.8	25.9
Rasgrf2	1	131 (active)	111
Rasgrf2	2	68	42.2
Rasgrf2	3	91.4	77.4
Slc22a13	1	129 (active)	108
Slc22a13	2	114	73.7
Slc22a13	3	202 (active)	112
Fdps	1	76.3	55.7
Fdps	2	81	65.7
Foxk1	1	59.4	36.7
Foxk1	2	22.5	61.7
Foxk1	3	74.7	81
C230013L11Rik	1	67.7	69.8
C230013L11Rik	2	82.7	88.3
C230013L11Rik	3	88.3	137
Rpn1	1	76.7	87.2
Rpn1	2	37.6	35.7
Tmub1	1	145 (active)	87.3
Tmub1	2	70.7	31.7
Tmub1	3	80.5	101
Or1e1f	1	83.9	81.3
Or1e1f	2	76.7	94.4
Or1e1f	3	89.5	80
Asph	1	83.4	78
Asph	2	86.9	64
Asph	3	81.9	62.5
Agap3	1	88.7	82.9
Agap3	2	83.9	81
Agap3	3	37.8	38.8

Records listed so far whose gene name begins with B or b:
gene	reagent	GFP, % of control	viability (ATP), % of control
Bcl7a	1	65.1	60.8
Bcl7a	2	90.1	94.3
Bcl7a	3	99	124

The list goes on:
gene	reagent	GFP, % of control	viability (ATP), % of control
Hsd3b1	1	81.2	72
Hsd3b1	2	95.3	72.9
Rab35	1	122 (active)	123
Rab35	2	130 (active)	95.9
Rab35	3	75	81.4
Ints15	1	67.5	88
Ints15	2	38.7	35.5
Ints15	3	112	60.1
Mrpl27	1	96.8	86.1
Mrpl27	2	76.4	52.2
Mrpl27	3	86.2	87.1
Dleu7	1	81.2	89.6
Dleu7	2	58	65.1
Dleu7	3	154 (active)	156
Hagh	1	99.1	98.1
Hagh	2	127 (active)	108
Hagh	3	53.1	89.6
Stn1	1	44	36.2
Stn1	2	63.5	83.9
Stn1	3	98.1	55.8
Parp9	1	87.7	66.7
Parp9	2	82.9	84.8
Parp9	3	80.5	77.7
Eif2a	1	92.5	78.9
Eif2a	2	94	111
Eif2a	3	93.1	115
Dnajc4	1	78.3	73.8
Dnajc4	2	85.4	79.3
Dnajc4	3	91.4	116
Echdc1	1	86.3	92.8
Echdc1	2	44.5	60.4
Echdc1	3	95.3	88
Aadat	1	114	76.4
Aadat	2	105	132
Aadat	3	46.4	88.4
Cep83	1	107	73.9
Cep83	2	61.1	47.6
Cep83	3	90.6	113
Senp7	1	96.6	84.5
Senp7	2	107	81.1
Senp7	3	96.7	95.5
Tanc1	1	67.8	79.6
Tanc1	2	105	83.1
Tanc1	3	228 (active)	90.2
Tanc1	4	67.8	86.2
Tanc1	5	95.6	92.9
Tanc1	6	141 (active)	93.3
Pafah1b1	1	89.8	107
Pafah1b1	2	106	77.6
Pafah1b1	3	29.4	31.3
Stpg1	1	78.7	68.1
Stpg1	2	77.8	46.9
Stpg1	3	51.3	58.7
Or4c101	1	36.5	61
Or4c101	2	90.6	55.8
Or4c101	3	67.7	107
Slc25a48	1	54.3	81.7
Slc25a48	2	95.7	67
Slc25a48	3	91.4	88.9
Fzd3	1	62	92.1
Fzd3	2	62.4	67.9
Map1b	1	42.2	57.5
Map1b	2	83.5	91.2
Sectm1a	1	78.1	80.7
Sectm1a	2	54.5	93.4
Sectm1a	3	144 (active)	164
